According to the supplement of paper PMC9233669:
Variants at the background level are over-represented here.

Columns and labels:
biotinyl-Ile-oxazolone = assay: self-aminoacylation, catalytic enhancement (BIO) (fold over background); higher = more active; k-Seq, kA / k0A0; sequences stand for … in GGGAAUGGAUCCACAUCUACGAAUUC…UUCACUGCAGACUUGACGAAGCUG
In short: (§1)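 Working in 50 μL HEPES/NaCl/KCl/MgCl2/CaCl2 buffer with 5% acetonitrile at pH 6.9–7.0, mutagenized RNA pools (0.43 μM; 21-nt variable region) were reacted with 2–1250 μM of each biotinyl-aminoacyl-oxazolone for 90 minutes at room temperature. Streptavidin capture followed, with quantification by triplicate qPCR and Illumina sequencing. Catalytic enhancement is reported as median kA over the uncatalyzed rate, the low-activity peak of a bimodal Gaussian fit to the data.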

biotinyl-Val-oxazolone = assay: self-aminoacylation, catalytic enhancement (BVO) (fold over background); higher = more active; k-Seq, kA / k0A0; sequences stand for … in GGGAAUGGAUCCACAUCUACGAAUUC…UUCACUGCAGACUUGACGAAGCUG
In short: as §1

biotinyl-Leu-oxazolone = assay: self-aminoacylation, catalytic enhancement (BLO) (fold over background); higher = more active; k-Seq, kA / k0A0; sequences stand for … in GGGAAUGGAUCCACAUCUACGAAUUC…UUCACUGCAGACUUGACGAAGCUG
In short: as §1

biotinyl-Met-oxazolone = assay: self-aminoacylation, catalytic enhancement (BMO) (fold over background); higher = more active; k-Seq, kA / k0A0; sequences stand for … in GGGAAUGGAUCCACAUCUACGAAUUC…UUCACUGCAGACUUGACGAAGCUG
In short: as §1

Sequence	self-aminoacylation (biotinyl-Ile-oxazolone)	self-aminoacylation (biotinyl-Val-oxazolone)	self-aminoacylation (biotinyl-Leu-oxazolone)	self-aminoacylation (biotinyl-Met-oxazolone)
CUACUUCAAUGAAUCGGUCUG [Fam1A.1 aminoacylation ribozyme variant]	0.853	0.817	0.96	0.938
CCACUCCAAACAAUCGGUCUG [Fam1A.1 aminoacylation ribozyme variant]	1.11	1.22	1.09	1.13
AAGUCUACUAAUAGUCGCAAG [Fam3.1 aminoacylation ribozyme variant]	1.82	1.3	1.1	1.48
CUACUCCAACCAAUCGGUCUG [Fam1A.1 aminoacylation ribozyme variant]	0.623	0.706	0.855	0.74
CCAUACUUCAAGCAAUCGGUC [Fam1B.1 aminoacylation ribozyme variant]	1.07	1.11	1.14	0.921
ACACACUUCAAGCAAUCGGUC [Fam1B.1 aminoacylation ribozyme variant]	1.19	1.35	1.34	1.09
CUAGUUCAAACAAUCAGUCUG [Fam1A.1 aminoacylation ribozyme variant]	0.869	0.784	0.756	0.742
CGAGUUCAAACAAUCGGUCUG [Fam1A.1 aminoacylation ribozyme variant]	1.15	1.04	1.25	1.07
AAGUUUGCUAAUAGCCGCAAG [Fam3.1 aminoacylation ribozyme variant]	0.815	0.756	0.698	0.734
AAGUUUACUUAUAGUCGCAAG [Fam3.1 aminoacylation ribozyme variant]	1.86	1.58	1.39	1.92
CUACUUCAACAAAUCGGUCUG [Fam1A.1 aminoacylation ribozyme variant]	0.856	0.844	1.08	0.632
UUACUUCAAACAAUCGGUCAG [Fam1A.1 aminoacylation ribozyme variant]	1.32	1.2	1.46	1.23
AAGUUUGCAAAUAGUCGCCAG [Fam3.1 aminoacylation ribozyme variant]	1.29	0.995	0.952	0.899
AAGUUUGCUAAUAUUCGCGAG [Fam3.1 aminoacylation ribozyme variant]	–	1.84	1.91	–
AAACUUCAAACAAUCGGUCUG [Fam1A.1 aminoacylation ribozyme variant]	1.28	1.14	1.65	1.42
CGACACUUCAAGGAAUCGGUC [Fam1B.1 aminoacylation ribozyme variant]	2.39	1.73	1.89	1.42
AACUCUGCUAAUAGUCGCAAG [Fam3.1 aminoacylation ribozyme variant]	1.79	1.73	1.53	–
CCACGCUUCAAGCAAUCGGCC [Fam1B.1 aminoacylation ribozyme variant]	1.4	–	1.33	1.52
GUUCAACUAGGUCAUCGGGUG [Fam2.2 aminoacylation ribozyme variant]	4.28	4.16	6.94	5.04
CUACUUCAAAUAAUCGGUAUG [Fam1A.1 aminoacylation ribozyme variant]	0.66	0.681	0.697	0.571
GUACUUCAAGCAAUCGGUCUG [Fam1A.1 aminoacylation ribozyme variant]	1.08	1.17	1.23	1.1
CCACUUAAAACAAUCGGUCUG [Fam1A.1 aminoacylation ribozyme variant]	1.11	1.13	1.05	1.44
CUCCUUCAAUCAAUCGGUCUG [Fam1A.1 aminoacylation ribozyme variant]	0.989	0.939	1.58	0.88
AAGUUUGAUUAUAGUCGCAAG [Fam3.1 aminoacylation ribozyme variant]	1.89	1.48	1.89	1.93
AUUAGCCUGGUCAUCGAGGGA [Fam2.1 aminoacylation ribozyme variant]	2.08	2.4	2.52	1.49
AUUCACCUAGGUCAUCCGGCG [Fam2.2 aminoacylation ribozyme variant]	3.31	4.01	3.69	3.55
AUACUUCAAACAAUCGGGCUG [Fam1A.1 aminoacylation ribozyme variant]	1.31	1.54	1.42	1.46

Sequence	self-aminoacylation (biotinyl-Ile-oxazolone)	self-aminoacylation (biotinyl-Val-oxazolone)	self-aminoacylation (biotinyl-Leu-oxazolone)	self-aminoacylation (biotinyl-Met-oxazolone)
UAGUUUGCUAAUAGUCGUAAG [Fam3.1 aminoacylation ribozyme variant]	1.14	1	0.88	1.21
CCACACUUCAAUAAAUCGGUC [Fam1B.1 aminoacylation ribozyme variant]	0.714	0.706	0.695	0.626
AUUCAUCUAGGUCAUCAGGUG [Fam2.2 aminoacylation ribozyme variant]	1.59	1.81	1.86	–
AUUACCCUGGUCCCCGAGUGA [Fam2.1 aminoacylation ribozyme variant]	6.57	8.55	15.6	15.2
CUACUUCAAACAAUCAGUCUG [Fam1A.1 aminoacylation ribozyme variant]	0.869	0.889	1.08	0.831
AAGUUUGCGAAUAGUCGCGAG [Fam3.1 aminoacylation ribozyme variant]	1.44	1.39	1.75	1.92
AAGUUGGCUGAUAGUCGCAAG [Fam3.1 aminoacylation ribozyme variant]	1.8	1.7	1.55	1.49
CAGUUUGAUAAUAGUCGCAAG [Fam3.1 aminoacylation ribozyme variant]	1.4	1.54	1.34	1.32
AAGAUUGUUAAUAGUCGCAAG [Fam3.1 aminoacylation ribozyme variant]	1.86	1.93	1.99	–
AAGUUCGCUAAUAGUCGCAAU [Fam3.1 aminoacylation ribozyme variant]	1.97	–	2	–
AUUCACCUAGCUUAUCGGGUG [Fam2.2 aminoacylation ribozyme variant]	1.73	1.91	1.84	–
AAUUUUGCUAAUAGUCGCAUG [Fam3.1 aminoacylation ribozyme variant]	1.95	1.67	1.71	–
CGACACUUCAAGCAAUUGGUC [Fam1B.1 aminoacylation ribozyme variant]	0.908	0.718	–	0.864
CCACACUUCACGCAAUCGGCC [Fam1B.1 aminoacylation ribozyme variant]	–	–	1.88	–
CCACUUCAAUCAAUCGGUCUG [Fam1A.1 aminoacylation ribozyme variant]	1.53	1.56	–	1.54
AUUACCCUGGUCAUUGCGUGA [Fam2.1 aminoacylation ribozyme variant]	6.44	7.31	–	15.8
AUUGACCUAGCUCAUCGGGUG [Fam2.2 aminoacylation ribozyme variant]	1.69	1.94	1.76	–
AAGUUGGCUAACAGUCGCAAG [Fam3.1 aminoacylation ribozyme variant]	–	1.56	1.91	1.95
GCACACUUCGAGCAAUCGGUC [Fam1B.1 aminoacylation ribozyme variant]	1.87	1.81	–	1.9
AAGCUUGCUAAUAGUCGCAAU [Fam3.1 aminoacylation ribozyme variant]	–	1.95	1.89	–
AUGCACCUAGGGCAUCGGGUG [Fam2.2 aminoacylation ribozyme variant]	2.89	3.46	–	3.04
GCACACAUCAAGCAAUCGGUC [Fam1B.1 aminoacylation ribozyme variant]	–	1.84	1.73	1.48
AUUCACCUAGGUCAUCGCGUC [Fam2.2 aminoacylation ribozyme variant]	1.61	–	1.98	–
AGGUUUGCUAAAAGUCGCAAG [Fam3.1 aminoacylation ribozyme variant]	1.81	1.47	1.49	–
AUUCACUUAGGUCCUCGGGUG [Fam2.2 aminoacylation ribozyme variant]	3.12	2.96	–	4.58
AUUGCCCUGGUCAUCGAGUGA [Fam2.1 aminoacylation ribozyme variant]	20.6	23.7	–	53.1
